The test deals with CD2F1 mice, L1210 leukemia ip, survival T/C. The experiment in a line: NCI In Vivo Anticancer Drug Screen. Data for tumor model L1210 Leukemia (intraperitoneal) in CD2F1 (CDF1) mice. Conditions: higher T/C = longer survival. The gist of the method: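 In this screen, transplantable tumors were grown in mice given either the compound or its vehicle. Results were expressed as the treated measurement relative to the control measurement.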

The mark [1] stands for this setting: T/C endpoint: mean survival time, dose: 100.0 mg/kg/injection, schedule: Q04DX003 (ip), vehicle: saline with Tween-80.
Where [2] appears, read: T/C endpoint: mean survival time, dose: 200.0 mg/kg/injection, schedule: Q04DX003 (ip), vehicle: saline with Tween-80.
Setting [3] is: T/C endpoint: mean survival time, dose: 400.0 mg/kg/injection, schedule: Q04DX003 (ip), vehicle: saline with Tween-80.
Setting [4] is: T/C endpoint: mean survival time, dose: 25.0 mg/kg/injection, schedule: Q01DX009 (ip), vehicle: saline.
The mark [5] stands for this setting: T/C endpoint: mean survival time, dose: 50.0 mg/kg/injection, schedule: Q01DX009 (ip), vehicle: saline.
Where [6] appears, read: T/C endpoint: mean survival time, dose: 25.0 mg/kg/injection, schedule: Q04DX003 (ip), vehicle: saline with Tween-80.
[7] abbreviates: T/C endpoint: mean survival time, dose: 100.0 mg/kg/injection, schedule: Q01DX009 (ip), vehicle: saline with Tween-80.
Setting [8] is: T/C endpoint: mean survival time, dose: 200.0 mg/kg/injection, schedule: Q01DX009 (ip), vehicle: saline with Tween-80.
Setting [9] is: T/C endpoint: mean survival time, dose: 400.0 mg/kg/injection, schedule: Q01DX009 (ip), vehicle: saline with Tween-80.

The list does not hold the whole screen: it gathers tests that were run many times, whatever their T/C, doses with no T/C, and many T/C values between a quarter and a half above the control. Other doses and runs of a compound stand elsewhere. T/C: endpoint of the treated group in % of that of the vehicle group. Some doses have a count of surviving animals in place of a T/C: the source holds a T/C of zero for them, seemingly a mark for toxic or unscored doses. Some survivor counts are full or nearly so, which does not show that the dose was tolerated: survival well below the control is almost never listed, so the zero probably covers shortened survival too. Survivors were counted at the toxicity check, usually on the fifth day, unless a day is given; later deaths do not show. Schedule codes are those of the source, taken here to give the interval after Q, in days (D) or hours (H), and the number of doses after X. Where survival is the endpoint, the PubChem record calls one and a half times the control and up active, and a quarter to a half above the control has no call in these data; cut-offs in other NCI protocols can differ. Some T/C values are followed by the survivors on the day toxicity was checked, most often the fifth; where none is given, no animal had died by that day.

Regarding `CCC(C)C1NC(=O)C(NC(=O)c2c3nc4c(C(=O)NC5C(=O)NC(C(C)CC)C(=O)N6CCCC6C(=O)N(C)CC(=O)N(C)C(C(C)C)C(=O)OC5C)cc(N)c(C)c4oc-3c(C)c(=O)c2N)C(C)OC(=O)C(C(C)C)N(C)C(=O)CN(C)C(=O)C2CCCN2C1=O` (centres undefined), the T/C (T/C endpoint: mean survival time, dose: 100.0 micrograms/kg/injection, schedule: Q01DX009 (ip), vehicle: water) was 125 % of control. Further, the survivor count runs as follows: (T/C endpoint: mean survival time, dose: 200.0 micrograms/kg/injection, schedule: Q01DX009 (ip), vehicle: water) 6 of 6; (T/C endpoint: mean survival time, dose: 400.0 micrograms/kg/injection, schedule: Q01DX009 (ip), vehicle: water) 4 of 6; (T/C endpoint: mean survival time, dose: 800.0 micrograms/kg/injection, schedule: Q01DX009 (ip), vehicle: water) 1 of 6.

For `C[N+](C)(C)C1(Cc2ccc(F)cc2)c2ccccc2-c2ccccc21`, the survivor count reads like this: under setting [1], 0 of 6; under setting [2], 0 of 6; under setting [3], 0 of 6.

Turning to `CCCCNCCC(SSSC(CCNCCCC)c1ccc(Cl)cc1)c1ccc(Cl)cc1` (centres undefined), the survivor count runs as follows: under setting [1], 1 of 6; under setting [2], 1 of 6; under setting [3], 0 of 6.

Consider `CCCCCC[Se][Se]CCCCCC`, for which the survivor count is reported as 5 of 6 (T/C endpoint: median survival time, dose: 25.0 mg/kg/injection, schedule: Q01DX009 (ip), vehicle: Klucel (hydroxypropylcellulose) (HPC)) and 0 of 6 (T/C endpoint: median survival time, dose: 50.0 mg/kg/injection, schedule: Q01DX009 (ip), vehicle: Klucel (hydroxypropylcellulose) (HPC)).

Consider `O=C(O)C(O)C(O)C(O)C(O)C(=O)O.[NH-]C1CCCCC1[NH-].[Pt+2]` (centres undefined), for which, for the setting “T/C endpoint: median survival time, dose: 25.0 mg/kg/injection, schedule: Q04DX003 (ip), vehicle: saline”, the T/C is 126 % of control.

On to `Cc1ccc(C(SCC(N)C(=O)O)(c2ccc(C)cc2)c2ccc(C)cc2)cc1` (centres undefined), for which the T/C reads like this: under setting [4], 125 % of control; under setting [5], 147 % of control.

As for `CCCCOP(=O)(OCCCC)[O][Pb]([CH2]C)([CH2]C)[CH2]C`, the survivor count under setting [6] is reported as 0 of 6.

As to `CCOC(=O)CCC(NC(=O)c1ccc(CN(C)Cc2cnc3nc(N)nc(N)c3n2)cc1)C(=O)OCC` (centres undefined), where the note is “T/C endpoint: mean survival time, dose: 50.0 mg/kg/injection, schedule: Q01DX009 (ip), vehicle: Klucel (hydroxypropylcellulose) (HPC)”, the T/C is 125 % of control.

Take `Cc1csc2ncn(C3OC(CO)C(O)C3O)c(=O)c12` (centres undefined): the survivor count is given as 4 of 5 under setting [7], 3 of 5 under setting [8] and 0 of 5 under setting [9].

For the compound `Cc1nc2c(NC(=O)CCl)nn(C)c2nc1C`, the survivor count under setting [3] is on record as 0 of 6.

For `O=C(OCC(OC(=O)c1ccccc1)C(OC(=O)c1ccccc1)C(O)C(O)CO)c1ccccc1` (centres undefined) (tested in a mixture with another compound), the survivor count (T/C endpoint: mean survival time, dose: 400.0 mg/kg/injection, schedule: Q04DX002 (ip), vehicle: saline with Tween-80) is given as 3 of 3.

In the case of `O=C(CNC(=O)NCc1ccco1)N/N=C/c1cc(Br)ccc1O`, the survivor count runs as follows: (T/C endpoint: mean survival time, dose: 50.0 mg/kg/injection, schedule: Q01DX009 (ip), vehicle: saline with Tween-80) 3 of 3; under setting [7], 3 of 3.

In the case of `CC1(C)CSC(=S)N1`, the survivor count (T/C endpoint: mean survival time, dose: 20.0 mg/kg/injection, schedule: Q04DX003 (ip), vehicle: saline with Tween-80) is given as 5 of 6; the survivor count under setting [1] is recorded as 0 of 6; the survivor count under setting [2] is on record as 0 of 6; the survivor count under setting [3] is given as 0 of 6.

As for `COc1cc2c(c(OC)c1OC)-c1ccc(SC)c(=O)cc1[C@@H](NC1OC(CO)C(O)C(O)C1O)CC2` (some centres undefined), the T/C by setting is: (T/C endpoint: mean survival time, dose: 6.25 mg/kg/injection, schedule: Q01DX009 (ip), vehicle: saline) 125 % of control; (T/C endpoint: mean survival time, dose: 12.5 mg/kg/injection, schedule: Q01DX009 (ip), vehicle: saline) 141 % of control; under setting [4], 141 % of control; under setting [5], 135 % of control. Also, the survivor count (T/C endpoint: mean survival time, dose: 100.0 mg/kg/injection, schedule: Q01DX009 (ip), vehicle: saline) was 2 of 6.

As for `CN(C)c1ccc(/C=N/NC(=O)CNC(=O)Nc2cccc([N+](=O)[O-])c2)c(Cl)c1`, the survivor count is, setting by setting: under setting [7], 3 of 3; under setting [8], 3 of 3.

`NC(CS(=O)c1ccc([N+](=O)[O-])cc1Cl)C(=O)O` (centres undefined): the survivor count under setting [8] was 3 of 6 and the survivor count under setting [9] is on record as 0 of 6.

Regarding `N.N.N.N.O=C(O)C1OCCOCCOC(C(=O)O)C(C(=O)O)OCCOCCOC1C(=O)O.[Pt+2].[Pt+2]` (centres undefined), the T/C (T/C endpoint: median survival time, dose: 12.5 mg/kg/injection, schedule: Q04DX003 (ip), vehicle: saline with Tween-80) was 131 % of control. Where the note is “T/C endpoint: median survival time, dose: 40.0 mg/kg/injection, schedule: Q04DX003 (ip), vehicle: saline”, the survivor count is on record as 6 of 6.

Consider `O=C(c1ccccc1)C1(c2ccccc2)OP(c2ccccc2)(c2ccccc2)(c2ccccc2)CC1c1ccccc1` (centres undefined), for which the survivor count is given as 0 of 6 (T/C endpoint: mean survival time, dose: 100.0 mg/kg/injection, schedule: Q01DX001 (ip), vehicle: saline with Tween-80); 0 of 6 (T/C endpoint: mean survival time, dose: 200.0 mg/kg/injection, schedule: Q01DX001 (ip), vehicle: saline with Tween-80); 0 of 6 (T/C endpoint: mean survival time, dose: 400.0 mg/kg/injection, schedule: Q01DX001 (ip), vehicle: saline with Tween-80).

Turning to `CN(C)CCC(=O)c1ccc2ccccc2c1`, the survivor count by setting is: (T/C endpoint: mean survival time, dose: 75.0 mg/kg/injection, schedule: Q01DX001 (ip), vehicle: saline) 0 of 6; (T/C endpoint: mean survival time, dose: 150.0 mg/kg/injection, schedule: Q01DX001 (ip), vehicle: saline) 0 of 6; (T/C endpoint: mean survival time, dose: 300.0 mg/kg/injection, schedule: Q01DX001 (ip), vehicle: saline) 0 of 6.

`CN(C)C(=O)c1ccc[n+](CC(=O)NCc2ccccc2)c1`: the survivor count (T/C endpoint: mean survival time, dose: 400.0 mg/kg/injection, schedule: Q04DX003 (ip), vehicle: saline) is on record as 3 of 6.

`C1OCC2[CH2][Hg][S][Hg][CH2]C1O2`: the survivor count is 0 of 6 (T/C endpoint: mean survival time, dose: 16.0 mg/kg/injection, schedule: Q01DX015 (ip), vehicle: saline) and 0 of 6 (T/C endpoint: mean survival time, dose: 32.0 mg/kg/injection, schedule: Q01DX015 (ip), vehicle: saline).

As for `[Cl][Pt+2][Cl].[NH-]Cc1ccccc1C[NH-]`, the survivor count (T/C endpoint: mean survival time, dose: 100.0 mg/kg/injection, schedule: Q04DX003 (ip), vehicle: dextrose) is on record as 6 of 6.

For the compound `Cc1cccc(C2=N/C(=C\c3ccc(N(C)C)cc3)C(=O)O2)c1`, the survivor count (T/C endpoint: mean survival time, dose: 100.0 mg/kg/injection, schedule: Q04DX002 (ip), vehicle: saline with Tween-80) is reported as 3 of 3.

Regarding `S=C=NCCc1ccccc1`, under setting [7], the survivor count is reported as 6 of 6.

As to `Clc1ncnc2c1ncn2C1CCCCO1` (centres undefined), the T/C is 137 % of control [5 of 6 alive] (T/C endpoint: mean survival time, dose: 264.0 mg/kg/injection, schedule: Q01DX009 (ip), vehicle: other) and 139 % of control (T/C endpoint: mean survival time, dose: 400.0 mg/kg/injection, schedule: Q01DX009 (ip), vehicle: other).

Take `[Br][Pt+2][Br].[NH-]c1cccc(F)c1.[NH-]c1cccc(F)c1`: where the note is “T/C endpoint: mean survival time, dose: 200.0 mg/kg/injection, schedule: Q04DX003 (ip), vehicle: distilled water + Tween-80”, the survivor count was 1 of 6.

With `Cc1ccc[n+](CCc2c[nH]c3ccccc23)c1`, the survivor count under setting [1] was 6 of 6.

`CC(=O)[O][Pb]([CH3])([CH3])[CH3]`: the survivor count by setting is: under setting [6], 3 of 3; (T/C endpoint: mean survival time, dose: 50.0 mg/kg/injection, schedule: Q04DX003 (ip), vehicle: saline with Tween-80) 3 of 3; under setting [1], 3 of 3.

In the case of `COc1ccc(Cc2nnc(Cc3ccc(OC)c(OC)c3)nn2)cc1OC`, the survivor count under setting [3] was 6 of 6.

The record behind these values is PubChem BioAssay AID256 (DTP/NCI, 2004).
